# Measured values from publication PMC7862700.
# Only a part is listed here, and it is no random draw. At the low end of the ranking the order means little.
# Target: T1, ELF3 (UniProt P78545)
# T1 sequence: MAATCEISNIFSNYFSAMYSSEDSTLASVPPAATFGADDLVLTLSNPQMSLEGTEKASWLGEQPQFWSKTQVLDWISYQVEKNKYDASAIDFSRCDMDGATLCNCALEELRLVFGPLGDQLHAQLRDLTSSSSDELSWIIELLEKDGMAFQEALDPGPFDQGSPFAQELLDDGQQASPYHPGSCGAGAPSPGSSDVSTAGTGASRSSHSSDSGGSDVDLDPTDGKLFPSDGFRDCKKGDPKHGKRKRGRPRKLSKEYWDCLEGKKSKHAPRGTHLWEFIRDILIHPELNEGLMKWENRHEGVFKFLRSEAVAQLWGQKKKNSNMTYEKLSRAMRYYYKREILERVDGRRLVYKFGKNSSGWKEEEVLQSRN
# Test: DAPPL (digital affinity profiling via proximity ligation, sequencing)
# Conditions: 10 mM Tris-HCl pH 7.5, 50 mM NaCl, 1 mM DTT, 4% glycerol, room temperature, 30 min; GST-TFs on glutathione beads, 16-mer random dsDNA library, 0.1% …; high values mean tight binding; double strand, one strand shown; scale: fold enrichment (6-mer frequency, TF over GST control)
row,Sequence,binding signal
1,TTGATC,1.01
2,ACACTC,0.973
3,AATGGT,1.25
4,TATAAA,1.33
5,ACGACC,1.25
6,TCCTAA,1.57
7,TGGGAT,1.12
8,CCTCGC,1.56
9,CTCATA,1.34
10,AGAACA,0.994
11,TTTGTT,1.35
12,CATATG,0.996
13,AAGGGC,0.954
14,ACGTTG,0.938
15,GTTACT,1.4
16,TGGGGT,0.976
17,AGCTCT,1.21
18,TCAGCT,0.881
19,TCTTCC,2.33
20,CGCGGC,0.98

# 3 entries from above in a different format.
row | Sequence | binding signal
7 | TGGGAT | 1.12
8 | CCTCGC | 1.56
20 | CGCGGC | 0.98

# The listing continues:

row,Sequence,binding signal
1,TTGGAA,1.06
2,TTACGG,1.35
3,AATCTT,1.4
4,CTGAAA,1.28
5,TGGCAC,1.18
6,TCCTGG,1.17
7,TTGACG,1.21
8,CTCCAT,0.984
9,TGGCTC,1.44
10,TGTTGT,1
11,TCCACC,0.925
12,AGTTCT,1.17
13,CTCCCC,1.25
14,CCCTTA,1.29
15,GTCCTT,1.16
16,ATTGGC,1.24
17,CCACTG,1.04
18,GATGCA,1.16
19,TCACTC,1.26
